The list shows a part of the results.
What follows are targets tested with CCn1cc(-c2ccnc3[nH]c(-c4cccc(CN(C)C)c4)cc23)c(-c2ccc(NC(=O)N(C)C)cc2)n1 (assay: log2 fold change, soluble protein after heating vs DMSO (PISA); higher = thermal stabilisation; K562 lysate, 10 uM; active = over 0.2 and 3.5 SD of the protein, either way, in both replicates (recomputed)).
How it was run: (§1)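 K562 pellets were dounce-homogenised in PBS pH 7.4 with 1 mM MgCl2, and the crude extract at 1 mg/mL protein was treated with 10 μM compound for 30 min. Aliquots were heated for 3 min across 48°C-58°C, pooled, and brought to 0.5% NP-40 at 4°C; soluble protein was the supernatant after 21,000xg for 90 min. Soluble protein was quantified by TMTpro 16plex LC-MS/MS with channel sums equalised, and reported as log2 fold change in thermal stability against DMSO controls, with values from duplicates.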

Amino acid sequences for entries named in this document (tags omitted). A change or cut given only in a name is not applied to a line headed by its entry.
UniProt P01871, whole entry, looked up: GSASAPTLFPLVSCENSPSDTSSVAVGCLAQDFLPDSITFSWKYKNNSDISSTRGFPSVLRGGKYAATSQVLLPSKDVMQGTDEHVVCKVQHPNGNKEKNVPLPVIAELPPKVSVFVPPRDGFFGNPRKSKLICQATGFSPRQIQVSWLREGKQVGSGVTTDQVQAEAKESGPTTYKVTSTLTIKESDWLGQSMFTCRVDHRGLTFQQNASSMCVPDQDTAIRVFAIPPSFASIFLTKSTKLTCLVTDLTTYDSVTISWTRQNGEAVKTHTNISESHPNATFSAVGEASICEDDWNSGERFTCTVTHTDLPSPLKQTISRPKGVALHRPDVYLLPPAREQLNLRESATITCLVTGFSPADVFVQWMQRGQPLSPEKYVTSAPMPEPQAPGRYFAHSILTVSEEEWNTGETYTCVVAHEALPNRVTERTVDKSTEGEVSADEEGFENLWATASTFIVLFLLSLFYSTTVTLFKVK
UniProt P83110, whole entry, looked up: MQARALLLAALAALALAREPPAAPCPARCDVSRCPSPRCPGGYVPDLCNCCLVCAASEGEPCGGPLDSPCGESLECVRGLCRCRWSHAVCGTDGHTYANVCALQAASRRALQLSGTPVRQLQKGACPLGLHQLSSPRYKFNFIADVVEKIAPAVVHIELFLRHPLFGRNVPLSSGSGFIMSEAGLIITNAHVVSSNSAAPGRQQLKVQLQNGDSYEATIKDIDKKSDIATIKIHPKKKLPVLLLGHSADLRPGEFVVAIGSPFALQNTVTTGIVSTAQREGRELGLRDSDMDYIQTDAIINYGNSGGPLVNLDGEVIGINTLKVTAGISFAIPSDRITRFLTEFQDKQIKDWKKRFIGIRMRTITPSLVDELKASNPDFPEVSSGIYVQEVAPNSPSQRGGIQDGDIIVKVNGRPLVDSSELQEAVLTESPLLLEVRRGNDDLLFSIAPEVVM
UniProt Q9ULG1, whole entry, looked up: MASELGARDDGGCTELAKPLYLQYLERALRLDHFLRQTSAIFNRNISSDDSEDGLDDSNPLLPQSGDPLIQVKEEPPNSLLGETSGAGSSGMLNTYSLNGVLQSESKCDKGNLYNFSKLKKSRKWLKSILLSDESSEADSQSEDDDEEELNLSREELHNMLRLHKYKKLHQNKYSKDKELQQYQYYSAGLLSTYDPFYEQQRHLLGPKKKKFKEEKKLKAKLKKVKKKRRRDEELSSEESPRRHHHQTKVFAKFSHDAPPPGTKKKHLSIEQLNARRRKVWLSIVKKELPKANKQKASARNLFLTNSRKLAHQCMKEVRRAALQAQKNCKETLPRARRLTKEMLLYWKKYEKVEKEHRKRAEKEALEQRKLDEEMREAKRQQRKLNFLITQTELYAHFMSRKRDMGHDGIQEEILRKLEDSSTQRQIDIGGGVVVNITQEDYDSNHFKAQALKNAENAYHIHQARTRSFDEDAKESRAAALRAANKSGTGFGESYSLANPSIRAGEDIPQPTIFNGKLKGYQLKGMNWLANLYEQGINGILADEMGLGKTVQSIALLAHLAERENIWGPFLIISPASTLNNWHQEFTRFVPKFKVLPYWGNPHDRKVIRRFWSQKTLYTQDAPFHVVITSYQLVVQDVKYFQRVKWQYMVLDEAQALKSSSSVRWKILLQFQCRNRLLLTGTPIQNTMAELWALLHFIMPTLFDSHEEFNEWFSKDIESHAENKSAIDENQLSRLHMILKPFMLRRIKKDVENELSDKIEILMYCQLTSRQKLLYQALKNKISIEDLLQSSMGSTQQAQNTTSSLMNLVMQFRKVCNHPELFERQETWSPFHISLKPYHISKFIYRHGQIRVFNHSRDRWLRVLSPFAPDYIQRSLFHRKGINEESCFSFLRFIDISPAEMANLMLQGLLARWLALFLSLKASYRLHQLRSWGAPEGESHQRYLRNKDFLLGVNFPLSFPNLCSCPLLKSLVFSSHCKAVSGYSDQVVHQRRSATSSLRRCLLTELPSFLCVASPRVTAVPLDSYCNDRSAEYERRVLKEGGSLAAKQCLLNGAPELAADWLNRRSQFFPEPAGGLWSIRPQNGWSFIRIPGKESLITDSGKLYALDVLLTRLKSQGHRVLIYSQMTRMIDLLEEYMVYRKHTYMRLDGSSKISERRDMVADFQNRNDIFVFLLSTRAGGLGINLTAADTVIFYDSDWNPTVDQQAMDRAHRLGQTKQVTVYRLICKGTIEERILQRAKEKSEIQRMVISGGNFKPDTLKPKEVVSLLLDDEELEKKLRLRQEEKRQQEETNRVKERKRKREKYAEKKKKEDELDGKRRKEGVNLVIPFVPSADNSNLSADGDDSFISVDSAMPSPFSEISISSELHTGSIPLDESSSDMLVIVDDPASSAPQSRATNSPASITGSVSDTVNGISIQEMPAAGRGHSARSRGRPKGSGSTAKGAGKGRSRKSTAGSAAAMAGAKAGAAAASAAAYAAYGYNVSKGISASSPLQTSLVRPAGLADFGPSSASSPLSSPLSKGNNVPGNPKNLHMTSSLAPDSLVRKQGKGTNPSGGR
UniProt P17181: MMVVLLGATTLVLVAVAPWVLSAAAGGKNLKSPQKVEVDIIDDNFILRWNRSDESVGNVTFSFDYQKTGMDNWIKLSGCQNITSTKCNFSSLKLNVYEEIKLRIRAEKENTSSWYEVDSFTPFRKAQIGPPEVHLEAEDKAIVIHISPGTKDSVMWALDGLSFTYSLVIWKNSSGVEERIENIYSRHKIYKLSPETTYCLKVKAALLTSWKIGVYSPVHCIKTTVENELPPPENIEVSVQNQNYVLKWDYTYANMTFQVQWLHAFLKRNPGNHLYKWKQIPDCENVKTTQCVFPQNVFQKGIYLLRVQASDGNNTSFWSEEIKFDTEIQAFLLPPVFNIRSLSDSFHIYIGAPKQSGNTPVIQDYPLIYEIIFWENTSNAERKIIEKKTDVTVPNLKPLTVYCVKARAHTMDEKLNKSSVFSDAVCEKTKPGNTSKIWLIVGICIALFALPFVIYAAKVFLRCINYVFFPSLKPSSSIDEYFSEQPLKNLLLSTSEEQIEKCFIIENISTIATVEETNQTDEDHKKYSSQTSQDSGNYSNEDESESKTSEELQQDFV
UniProt P01877, whole entry, looked up: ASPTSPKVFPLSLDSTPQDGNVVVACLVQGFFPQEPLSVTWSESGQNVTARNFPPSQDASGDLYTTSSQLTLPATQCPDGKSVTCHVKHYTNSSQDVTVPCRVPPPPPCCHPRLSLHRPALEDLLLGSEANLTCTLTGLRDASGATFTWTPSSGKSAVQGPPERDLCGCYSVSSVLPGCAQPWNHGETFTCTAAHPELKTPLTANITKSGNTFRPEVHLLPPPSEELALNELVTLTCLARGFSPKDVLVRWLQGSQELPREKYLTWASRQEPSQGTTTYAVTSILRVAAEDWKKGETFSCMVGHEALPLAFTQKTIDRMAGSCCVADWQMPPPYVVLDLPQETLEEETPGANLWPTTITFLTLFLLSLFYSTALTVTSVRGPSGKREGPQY
UniProt P35475: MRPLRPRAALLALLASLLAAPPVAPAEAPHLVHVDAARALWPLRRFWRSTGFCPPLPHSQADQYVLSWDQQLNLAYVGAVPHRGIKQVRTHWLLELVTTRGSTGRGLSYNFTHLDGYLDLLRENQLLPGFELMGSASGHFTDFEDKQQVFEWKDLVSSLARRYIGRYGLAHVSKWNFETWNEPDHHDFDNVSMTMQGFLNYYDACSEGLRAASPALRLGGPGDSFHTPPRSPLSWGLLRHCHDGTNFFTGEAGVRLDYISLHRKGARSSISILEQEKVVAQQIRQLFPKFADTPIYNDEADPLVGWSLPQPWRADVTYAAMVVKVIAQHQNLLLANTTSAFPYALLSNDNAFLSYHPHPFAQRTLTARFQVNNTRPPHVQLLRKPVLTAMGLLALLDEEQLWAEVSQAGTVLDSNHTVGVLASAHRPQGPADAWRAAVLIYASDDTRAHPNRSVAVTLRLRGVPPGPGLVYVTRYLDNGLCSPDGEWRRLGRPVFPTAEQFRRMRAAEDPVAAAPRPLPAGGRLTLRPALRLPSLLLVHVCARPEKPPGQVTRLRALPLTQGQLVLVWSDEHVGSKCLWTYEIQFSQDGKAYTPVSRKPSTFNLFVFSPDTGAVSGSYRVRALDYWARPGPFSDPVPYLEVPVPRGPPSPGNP
IGKV3D-7, A0A0C4DH55, UniProt A0A0C4DH55, whole entry, looked up: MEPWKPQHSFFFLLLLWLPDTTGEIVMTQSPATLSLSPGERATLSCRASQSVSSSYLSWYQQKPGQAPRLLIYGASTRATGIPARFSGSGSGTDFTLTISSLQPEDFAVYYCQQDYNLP
UniProt P15516: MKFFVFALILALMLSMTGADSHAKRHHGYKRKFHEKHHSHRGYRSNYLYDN
UniProt Q9NRR6: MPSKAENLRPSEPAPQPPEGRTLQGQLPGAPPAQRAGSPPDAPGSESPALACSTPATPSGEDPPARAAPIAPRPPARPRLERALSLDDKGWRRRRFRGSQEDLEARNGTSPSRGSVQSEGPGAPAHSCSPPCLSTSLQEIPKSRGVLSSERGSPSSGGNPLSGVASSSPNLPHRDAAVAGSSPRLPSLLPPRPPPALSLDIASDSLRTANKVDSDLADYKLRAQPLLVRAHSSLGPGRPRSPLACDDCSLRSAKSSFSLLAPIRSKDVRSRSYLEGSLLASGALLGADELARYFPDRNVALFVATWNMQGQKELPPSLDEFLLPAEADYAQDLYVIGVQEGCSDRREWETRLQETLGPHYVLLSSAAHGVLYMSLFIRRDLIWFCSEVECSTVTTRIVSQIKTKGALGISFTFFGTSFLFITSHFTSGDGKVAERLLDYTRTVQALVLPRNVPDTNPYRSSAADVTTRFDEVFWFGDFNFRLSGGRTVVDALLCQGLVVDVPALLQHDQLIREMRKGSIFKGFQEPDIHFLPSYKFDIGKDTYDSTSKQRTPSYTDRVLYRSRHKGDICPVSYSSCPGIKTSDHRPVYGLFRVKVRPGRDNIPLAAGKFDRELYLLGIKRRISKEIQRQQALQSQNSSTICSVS
UniProt P58166: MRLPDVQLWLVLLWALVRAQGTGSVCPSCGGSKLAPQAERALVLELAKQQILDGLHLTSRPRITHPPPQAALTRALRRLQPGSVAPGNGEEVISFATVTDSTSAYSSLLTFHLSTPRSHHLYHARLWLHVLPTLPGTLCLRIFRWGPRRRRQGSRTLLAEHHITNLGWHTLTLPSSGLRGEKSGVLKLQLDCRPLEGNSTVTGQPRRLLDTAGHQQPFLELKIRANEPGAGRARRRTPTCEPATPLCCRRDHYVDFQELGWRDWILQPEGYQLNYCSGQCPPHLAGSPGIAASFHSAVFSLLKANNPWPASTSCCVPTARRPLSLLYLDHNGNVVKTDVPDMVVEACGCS
UniProt P78552: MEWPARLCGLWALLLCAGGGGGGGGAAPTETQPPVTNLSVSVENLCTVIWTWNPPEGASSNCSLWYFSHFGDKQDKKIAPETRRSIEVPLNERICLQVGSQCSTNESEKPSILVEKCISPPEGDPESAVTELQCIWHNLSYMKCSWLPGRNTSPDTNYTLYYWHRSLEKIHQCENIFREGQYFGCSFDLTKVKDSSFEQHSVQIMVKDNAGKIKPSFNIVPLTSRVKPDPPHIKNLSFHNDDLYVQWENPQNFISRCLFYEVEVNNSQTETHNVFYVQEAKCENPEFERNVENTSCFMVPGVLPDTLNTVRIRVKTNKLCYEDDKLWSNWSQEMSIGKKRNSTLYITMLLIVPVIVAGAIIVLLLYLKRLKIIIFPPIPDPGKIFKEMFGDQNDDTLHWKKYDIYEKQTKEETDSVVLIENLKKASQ
UniProt Q96G21: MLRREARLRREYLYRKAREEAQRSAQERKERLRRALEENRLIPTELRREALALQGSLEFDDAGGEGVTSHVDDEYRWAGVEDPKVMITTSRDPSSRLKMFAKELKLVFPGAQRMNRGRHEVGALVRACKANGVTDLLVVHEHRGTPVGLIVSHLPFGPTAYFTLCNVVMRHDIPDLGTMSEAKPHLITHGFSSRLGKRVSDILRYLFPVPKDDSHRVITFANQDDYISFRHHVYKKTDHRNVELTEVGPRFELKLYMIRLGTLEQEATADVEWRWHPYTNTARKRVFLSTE
UniProt P0DMQ5: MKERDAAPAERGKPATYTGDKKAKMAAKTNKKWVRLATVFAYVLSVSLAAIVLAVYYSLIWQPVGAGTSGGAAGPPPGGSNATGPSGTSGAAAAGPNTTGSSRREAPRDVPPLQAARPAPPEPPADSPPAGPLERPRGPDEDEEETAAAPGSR
UniProt Q13261, whole entry, looked up: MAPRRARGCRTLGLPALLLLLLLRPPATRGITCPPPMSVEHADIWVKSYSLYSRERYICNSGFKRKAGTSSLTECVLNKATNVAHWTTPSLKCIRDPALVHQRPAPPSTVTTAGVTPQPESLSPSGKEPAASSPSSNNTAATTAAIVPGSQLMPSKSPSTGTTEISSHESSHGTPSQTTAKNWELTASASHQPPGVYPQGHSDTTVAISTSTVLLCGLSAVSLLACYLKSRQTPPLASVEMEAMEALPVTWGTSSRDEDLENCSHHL

Target | log2 fold change
IGHM isoform 2 (UniProt P01871) | inactive: 0.804
IGKV3-20 (UniProt P01619) | inactive: 0.469
IL6ST (UniProt P40189) | inactive: 0.351
HTRA3 (UniProt P83110) | inactive: -0.274
INO80 (UniProt Q9ULG1) | inactive: -0.02
IFNAR1 (UniProt P17181) | inactive: 0.037
IGHA2 (UniProt P01877) | inactive: 0.884
IDUA (UniProt P35475) | inactive: -0.012
IGKV3D-7, A0A0C4DH55 | inactive: 0.578
HTN3 (UniProt P15516) | inactive: -0.047
INPP5E (UniProt Q9NRR6) | inactive: -0.009
IGKV1D-33, A0A2Q2TTZ9 | inactive: 0.919
INHBE (UniProt P58166) | inactive: -0.035
IL13RA1 (UniProt P78552) | inactive: -0.148
IGSF1 isoform 4 (UniProt Q8N6C5) | inactive: 0.006
IGHV3-72, A0A4W8ZXM2 | inactive: 0.306
IMP4 (UniProt Q96G21) | inactive: -0.03

What follows are targets tested with CN1CCC(CNc2ccc3ncc(-c4cccc(OC(F)(F)F)c4)n3n2)CC1 in the same assay as above.
How it was run: as §1

Target | log2 fold change
IGHM isoform 2 (UniProt P01871) | inactive: -0.352
IGKV3-20 (UniProt P01619) | inactive: -0.48
IL6ST (UniProt P40189) | inactive: -0.417
HTRA3 (UniProt P83110) | inactive: 0.442
INO80 (UniProt Q9ULG1) | inactive: -0.021
IFNAR1 (UniProt P17181) | inactive: 0.003
IGHA2 (UniProt P01877) | inactive: -1.25
IDUA (UniProt P35475) | inactive: -0.085
IGKV3D-7, A0A0C4DH55 | inactive: -0.597
HTN3 (UniProt P15516) | inactive: 0.024
INPP5E (UniProt Q9NRR6) | inactive: 0.043
IGKV1D-33, A0A2Q2TTZ9 | inactive: -0.326
INHBE (UniProt P58166) | inactive: 0.082
IL13RA1 (UniProt P78552) | inactive: 0.043
IGSF1 isoform 4 (UniProt Q8N6C5) | inactive: 0.082
IGHV3-72, A0A4W8ZXM2 | inactive: -0.101
IMP4 (UniProt Q96G21) | inactive: 0.031

Each target was assayed with CN1CCN(CCOc2cc(OC3CCOCC3)c3c(Nc4c(Cl)ccc5c4OCO5)ncnc3c2)CC1 [saracatinib] in the same assay as above.
How it was run: as §1

Target | log2 fold change
IFIT3 (UniProt O14879) | inactive: 0.112
IGHM isoform 2 (UniProt P01871) | inactive: -1.59
IGKV3-20 (UniProt P01619) | inactive: -0.945
IFNAR1 (UniProt P17181) | inactive: 0.04
INCENP (UniProt Q9NQS7) | inactive: -0.077
IFT122 isoform 5 (UniProt Q9HBG6) | inactive: 0.181
IFT172 (UniProt Q9UG01) | inactive: 0.189
INO80B (UniProt Q9C086) | inactive: 0.022
HSPBP1 (UniProt K7EMM7) | inactive: -0.024
HUWE1 (UniProt H0Y659) | inactive: -0.264
INAFM2 (UniProt P0DMQ5) | inactive: 0.159

Each target was assayed with CN1CCN(c2nc(C3=C(c4c[nH]c5ccccc45)C(=O)NC3=O)c3ccccc3n2)CC1 [sotrastaurin] in the same assay as above.
How it was run: as §1

Target | log2 fold change
IFIT3 (UniProt O14879) | inactive: 0.113
IL15RA (UniProt Q13261) | inactive: -0.153
INO80 (UniProt Q9ULG1) | inactive: 0.081
IFNAR1 (UniProt P17181) | inactive: 0.1
IFT52 (UniProt Q9Y366) | inactive: -0.166
IDUA (UniProt P35475) | inactive: 0.243
IFT122 isoform 5 (UniProt Q9HBG6) | inactive: 0.119
INPP5E (UniProt Q9NRR6) | inactive: 0.018
INHBE (UniProt P58166) | inactive: 0.045
ILF3 (UniProt K7EKJ9) | inactive: 0.084
IFT88 (UniProt Q13099) | inactive: -0.172
ING2 (UniProt Q9H160) | inactive: 0.005
IL13RA1 (UniProt P78552) | inactive: -0.055
INAFM2 (UniProt P0DMQ5) | inactive: 0.072
IMP4 (UniProt Q96G21) | inactive: 0.015
